Positions count from the first letter of the chain named. For at least one entry, the source does not settle the construct or the ends of the probe. For some of these results: Weaker means in comparison with the reference protein, sequence or condition of that experiment. Where a protein sequence is shown, tags need not be part of it.
Assays:
Experiment in all cases: enzyme reaction in vitro
[1] = system: T1, BsmI R155D (Bacillus stearothermophilus NUB36); settings: low nicking activity, low ds-DNA cleavage; protein in an extract; only the site is given
T1 sequence: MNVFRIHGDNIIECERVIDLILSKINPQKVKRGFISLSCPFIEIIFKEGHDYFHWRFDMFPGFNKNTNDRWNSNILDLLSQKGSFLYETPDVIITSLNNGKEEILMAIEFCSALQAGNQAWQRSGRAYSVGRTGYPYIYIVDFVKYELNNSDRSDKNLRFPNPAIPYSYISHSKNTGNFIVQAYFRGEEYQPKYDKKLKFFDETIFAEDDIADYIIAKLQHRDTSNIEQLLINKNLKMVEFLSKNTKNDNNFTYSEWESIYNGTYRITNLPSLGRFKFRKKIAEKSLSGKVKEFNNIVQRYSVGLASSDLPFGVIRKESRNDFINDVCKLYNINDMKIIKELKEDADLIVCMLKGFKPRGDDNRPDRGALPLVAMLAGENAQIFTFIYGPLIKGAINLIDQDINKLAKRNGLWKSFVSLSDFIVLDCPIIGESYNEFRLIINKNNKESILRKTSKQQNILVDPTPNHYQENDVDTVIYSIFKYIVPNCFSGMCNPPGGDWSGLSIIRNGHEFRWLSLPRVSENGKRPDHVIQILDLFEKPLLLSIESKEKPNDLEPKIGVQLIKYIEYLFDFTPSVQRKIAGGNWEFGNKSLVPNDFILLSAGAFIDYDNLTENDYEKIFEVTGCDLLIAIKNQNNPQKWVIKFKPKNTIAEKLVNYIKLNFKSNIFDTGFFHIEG

[2] = system: T2, BsmI R438D (Bacillus stearothermophilus NUB36); settings: ds-DNA cleavage; protein in an extract; only the site is given
T2 sequence: T1 sequence with D155R, R438D

[3] = system: T3, BsmI R513D (Bacillus stearothermophilus NUB36); settings: ds-DNA cleavage; protein in an extract; only the site is given
T3 sequence: T1 sequence with D155R, R513D

[4] = system: T4, BsmI R578D (Bacillus stearothermophilus NUB36); settings: ds-DNA cleavage; protein in an extract; only the site is given
T4 sequence: T1 sequence with D155R, R578D

GCATTC [pBR322 supercoiled plasmid (one BsmI site)]
activity on this sequence [1]: less active | activity on this sequence [2]: active | activity on this sequence [3]: active | activity on this sequence [4]: active

Source: patent publication US20080213860
